Data: publication doi:10.1101/2024.06.26.599433
No constants are given. Whether binding was seen depends on the method and setting. In cells and extracts the contact can be indirect. Some binding calls cover weakened binding; strength is not graded here.

By UniProt entry, the sequences of proteins in these tests, tags left out. Where a name states a change or a piece, a line headed by the entry shows the natural chain unless it says otherwise.
UniProt Q9D8X5, whole entry: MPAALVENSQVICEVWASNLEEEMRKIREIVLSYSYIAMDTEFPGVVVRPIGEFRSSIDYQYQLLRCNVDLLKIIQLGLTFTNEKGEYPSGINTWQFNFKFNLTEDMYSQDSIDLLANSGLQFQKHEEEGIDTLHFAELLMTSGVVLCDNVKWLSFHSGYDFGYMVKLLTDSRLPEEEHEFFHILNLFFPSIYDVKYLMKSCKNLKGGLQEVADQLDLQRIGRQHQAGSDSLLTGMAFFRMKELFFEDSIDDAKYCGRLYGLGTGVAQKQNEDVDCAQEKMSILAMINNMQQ
UniProt Q8C5L3, whole entry: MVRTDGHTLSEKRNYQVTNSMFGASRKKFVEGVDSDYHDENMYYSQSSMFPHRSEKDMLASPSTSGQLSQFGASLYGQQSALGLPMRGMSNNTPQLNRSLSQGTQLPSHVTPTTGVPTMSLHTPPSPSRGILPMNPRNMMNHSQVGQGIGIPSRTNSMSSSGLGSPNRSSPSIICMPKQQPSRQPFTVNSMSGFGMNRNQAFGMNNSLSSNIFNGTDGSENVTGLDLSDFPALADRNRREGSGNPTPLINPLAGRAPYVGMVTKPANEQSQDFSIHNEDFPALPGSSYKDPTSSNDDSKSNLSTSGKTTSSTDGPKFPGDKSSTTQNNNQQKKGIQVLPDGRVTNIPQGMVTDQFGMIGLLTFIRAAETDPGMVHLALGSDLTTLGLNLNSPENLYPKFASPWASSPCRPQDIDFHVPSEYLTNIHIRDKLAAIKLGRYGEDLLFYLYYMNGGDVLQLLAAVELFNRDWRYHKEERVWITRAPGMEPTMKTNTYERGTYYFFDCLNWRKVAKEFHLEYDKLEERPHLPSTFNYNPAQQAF
UniProt Q8K0V4, whole entry: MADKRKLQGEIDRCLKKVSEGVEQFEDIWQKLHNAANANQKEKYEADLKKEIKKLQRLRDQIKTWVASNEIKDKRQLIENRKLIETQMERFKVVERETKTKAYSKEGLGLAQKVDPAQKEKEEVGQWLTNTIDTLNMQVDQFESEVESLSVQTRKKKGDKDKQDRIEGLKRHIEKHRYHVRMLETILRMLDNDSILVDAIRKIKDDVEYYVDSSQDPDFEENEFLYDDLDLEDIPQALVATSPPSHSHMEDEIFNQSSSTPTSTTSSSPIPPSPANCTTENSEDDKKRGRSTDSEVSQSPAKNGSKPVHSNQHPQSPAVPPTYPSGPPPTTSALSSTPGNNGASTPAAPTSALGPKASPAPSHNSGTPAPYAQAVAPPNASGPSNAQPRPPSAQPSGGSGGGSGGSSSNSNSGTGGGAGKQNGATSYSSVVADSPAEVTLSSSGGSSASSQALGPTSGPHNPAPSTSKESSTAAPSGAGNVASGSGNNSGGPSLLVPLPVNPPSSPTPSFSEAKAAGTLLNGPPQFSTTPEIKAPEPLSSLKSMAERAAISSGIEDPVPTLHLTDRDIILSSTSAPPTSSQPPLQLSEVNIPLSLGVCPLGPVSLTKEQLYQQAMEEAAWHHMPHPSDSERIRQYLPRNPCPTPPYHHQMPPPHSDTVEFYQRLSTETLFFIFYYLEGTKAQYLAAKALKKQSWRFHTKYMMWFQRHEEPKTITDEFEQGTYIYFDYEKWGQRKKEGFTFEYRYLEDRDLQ
UniProt Q920Q6, whole entry: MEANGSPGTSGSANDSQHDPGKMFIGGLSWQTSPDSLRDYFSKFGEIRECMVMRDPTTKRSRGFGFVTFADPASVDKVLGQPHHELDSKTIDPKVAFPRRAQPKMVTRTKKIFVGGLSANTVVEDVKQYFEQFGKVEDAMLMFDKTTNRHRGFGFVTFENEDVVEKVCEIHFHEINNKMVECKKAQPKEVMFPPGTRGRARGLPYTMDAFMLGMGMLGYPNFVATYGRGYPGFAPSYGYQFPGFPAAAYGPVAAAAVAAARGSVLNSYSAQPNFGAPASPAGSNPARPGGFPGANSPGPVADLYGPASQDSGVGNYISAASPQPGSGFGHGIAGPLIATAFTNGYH

What was measured:
Test in all cases: co-IP
FLAG-tagged CNOT8-M141A = FLAG-tagged CNOT8-M141A (UniProt Q9D8X5)
[1] = target: FLAG-tagged CNOT8-R (the C-terminus of CNOT8 replaced with that of CNOT7) (UniProt Q9D8X5)
FLAG-tagged CNOT2 = FLAG-tagged CNOT2 (UniProt Q8C5L3)
[2] = target: FLAG-tagged CNOT8 (wild type) (UniProt Q9D8X5)
FLAG-tagged CNOT3 = FLAG-tagged CNOT3 (UniProt Q8K0V4)

Measured: binding

HA-tagged MSI2 (Musashi-2) (from UniProt Q920Q6 1-346)
binds: FLAG-tagged CNOT8-M141A | [1] | FLAG-tagged CNOT2 | [2] | FLAG-tagged CNOT3
